We go through 35 compounds from the supplement of paper PMC9135407.

Counter-ions that a name gives are not always drawn. ± gives the standard deviation of the averaged measurements. The list shows a part of the results. Plates or batches differ in their baseline, so values are only roughly comparable.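 Culture-activated primary human stellate myofibroblasts, where regained lipid droplets signal inactivation. Value: share of Hoechst-counted cells above a per-plate Bodipy cutoff, in duplicate wells, with DMSO negative and nortriptyline positive controls on each plate. Hits: a control-normalized score above the plate's top-tenth-percentile nortriptyline wells, or one of a plate's three best wells. Final well concentrations are not given.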

This assay concerns primary human hepatic stellate cells (donor 1). As to the kind of experiment: percent Bodipy-positive cells; higher = more lipid droplet accumulation. Conditions: 48 h.
[1] abbreviates: library stock concentration: 3.33 mM.
Where [2] appears, read: library stock concentration: 10 mM.

Regarding `C=C1[C@@H](O)[C@@H]2O[C@]3(CC[C@H](/C=C/[C@@H](C)[C@@H]4CC(C)=C[C@@]5(O[C@H](C[C@@](C)(O)C(=O)O)CC[C@H]5O)O4)O3)CC[C@H]2O[C@@H]1[C@@H](O)C[C@H](C)[C@H]1O[C@@]2(CCCCO2)CC[C@H]1C` [Okadaic acid], the “percent Bodipy-positive cells” value (library stock concentration: 600 uM) is 100%.
In the case of `CCC(COC(=O)c1cc(OC)c(OC)c(OC)c1)(c1ccccc1)N(C)C` (configuration not stated) [Trimebutine], the “percent Bodipy-positive cells” value came to 18 ± 0.33% under setting [1] and 28.2 ± 14% under setting [2].
On the same counts, the results for `C/C=C(\C)C(=O)N[C@@H](c1ccccc1)[C@@H](O)C(=O)O[C@H]1C[C@@]2(O)[C@@H](OC(=O)c3ccccc3)[C@@H]3[C@]4(OC(C)=O)CO[C@@H]4C[C@H](O)[C@@]3(C)C(=O)[C@H](OC(C)=O)C(=C1C)C2(C)C` [Cephalomannine] are 13.7 ± 9.2% and 22.4 ± 3.7%.
On to `C[C@H]1C(=O)O[C@@H]2CCN3CC=C(COC(=O)[C@](C)(O)[C@]1(C)O)[C@H]23` [Monocrotaline], for which the “percent Bodipy-positive cells” value turned out to be 36.1 ± 7.8%. In addition, under setting [2], the “percent Bodipy-positive cells” value was found to be 18.7 ± 0.57%.
Consider `COC1=C[C@@H]2C3=C([C@@H]2C1=O)[C@@H](NC(C)=O)CCc1cc(OC)c(OC)c(OC)c13` [Lumicolchicine gamma], for which the “percent Bodipy-positive cells” value came to 29.3 ± 8.9%.
With `C=C(C)[C@@H]1[C@H]2OC(=O)[C@@H]1[C@]1(O)C[C@H]3OC34C(=O)O[C@H]2[C@@]41C.CC(C)(O)[C@@H]1[C@H]2OC(=O)[C@@H]1[C@]1(O)C[C@H]3OC34C(=O)O[C@H]2[C@@]41C` (some centres not stated) [Picrotoxin], the “percent Bodipy-positive cells” value under setting [2] came out at 34.2 ± 11%.
Consider `CC(=O)OCC1=C(C(=O)O)N2C(=O)[C@@H](N)[C@H]2SC1` [Cephalosporanic acid, 7-amino], for which the “percent Bodipy-positive cells” value came to 23.7 ± 8.7%.
For the compound `CO[C@]12C[C@@H](COC(=O)c3cncc(Br)c3)CN(C)[C@@H]1Cc1cn(C)c3cccc2c13` [Nicergoline], the “percent Bodipy-positive cells” value turned out to be 38.3 ± 30%.
For the compound `C[N+]12CCC(CC1)C(OC(=O)C(O)(c1ccccc1)c1ccccc1)C2` (configuration not stated) [Clidinium bromide], the “percent Bodipy-positive cells” value turned out to be 8.53 ± 0.098%. The “percent Bodipy-positive cells” value under setting [2] was found to be 6.9 ± 0.38%.
As to `OC[C@@H](O)[C@H]1O[C@@H]2O[C@H](C(Cl)(Cl)Cl)O[C@@H]2[C@H]1O`, the “percent Bodipy-positive cells” value under setting [2] was 31.6 ± 7.3%.
With `CCCCC/C=C\C/C=C\C/C=C\C/C=C\CCCC(=O)Nc1cccc(O)c1` [N-(3-hydroxyphenyl)-Arachidonoyl amide], the “percent Bodipy-positive cells” value (library stock concentration: 1 mM) was 14.2 ± 1.6%.
As to `CC(=O)OC12COC1CC(O)C1(C)C(=O)C(O)C3=C(C)C(O)CC(O)(C(OC(=O)c4ccccc4)C21)C3(C)C` (configuration not stated) [10-Deacetylbaccatin-III], the “percent Bodipy-positive cells” value by setting is: under setting [1], 10.2 ± 1.3%; under setting [2], 22.8 ± 7.2%.
As to `CCCN1CCc2cc(O)cc3c2[C@H]1Cc1ccc(O)c(O)c1-3` [R(-)-2,10,11-Trihydroxy-N-propylnoraporphine hydrobromide], the “percent Bodipy-positive cells” value under setting [2] stood at 39 ± 3%.
Take `CN1C(=O)CN=C(c2ccccc2)c2cc([N+](=O)[O-])ccc21` [Nimetazepam]: the “percent Bodipy-positive cells” value under setting [2] turned out to be 6.91 ± 4.4%.
Take `C/C1=C/C(=O)O[C@@H]2C[C@@H](CC[C@H](C)/C=C\CC1)O[C@@](O)([C@@H]1CSC(=O)N1)C2` [Latrunculin B]: for the setting “library stock concentration: 12.6 mM”, the “percent Bodipy-positive cells” value came to 75.8 ± 8.8%.
In the case of `C[C@@]12N[C@@H](Cc3ccccc31)c1ccccc12` [(-)-MK-801 hydrogen maleate], the “percent Bodipy-positive cells” value under setting [2] was 63.7 ± 5%.
Take `C[C@@]12N[C@@H](Cc3ccccc31)c1ccccc12` [(-)-MK 801 Maleate]: the “percent Bodipy-positive cells” value under setting [1] came out at 18.9 ± 1.9% and the “percent Bodipy-positive cells” value under setting [2] came to 38.5 ± 7.2%.
For the compound `C[C@@]12N[C@@H](Cc3ccccc31)c1ccccc12` [(-)-MK 801 hydrogen maleate], the “percent Bodipy-positive cells” value is 11.3 ± 5.7%.
As to `C[C@@]12N[C@@H](Cc3ccccc31)c1ccccc12` [(-)-MK 801 maleate], under setting [2], the “percent Bodipy-positive cells” value turned out to be 21.7 ± 5.3%.
As for `CC(CC(C(N)=O)(c1ccccc1)c1ccccc1)N(C)C` (configuration not stated) [Aminopentamide], the “percent Bodipy-positive cells” value (library stock concentration: 5.1 mM) turned out to be 20.5 ± 6.2%.
On to `C#CCN[C@H](C)Cc1ccccc1` [R-(-)-Desmethyldeprenyl hydrochloride], for which the “percent Bodipy-positive cells” value under setting [2] was 48 ± 0.72%.
For the compound `CCCN(CCC)[C@@H]1CCc2cccc(O)c2C1` [R-(+)-8-Hydroxy-DPAT hydrobromide], the “percent Bodipy-positive cells” value under setting [2] is 52.3 ± 16%.
`NCC(=O)O.[C-]#[O+].[C-]#[O+].[C-]#[O+].[Cl][Ru]`: the “percent Bodipy-positive cells” value was 35.2 ± 6% under setting [1] and 34.6 ± 7.5% under setting [2].
With `Cc1cc(C(=O)CN2CCCC2)c(C)n1-c1ccc(F)cc1`, the “percent Bodipy-positive cells” value under setting [1] is 41 ± 12% and the “percent Bodipy-positive cells” value under setting [2] was 57.7 ± 4.6%.
Consider `C[C@]12Cc3c[nH]nc3C[C@@H]1CC[C@@H]1[C@@H]2CC[C@@]2(C)[C@H]1CC[C@]2(C)O` [Stanozolol], for which the “percent Bodipy-positive cells” value reads like this: (library stock concentration: 6.1 mM) 5.55 ± 1.3%; under setting [2], 33.1 ± 19%.
In the case of `COc1cc2c(cc1-c1cc3cc4ccoc4cc3oc1=O)OCO2` [Pachyrrhizin], the “percent Bodipy-positive cells” value under setting [2] is 45.5 ± 10%.
As to `Cc1nnc2ccc(-c3cccc(C(F)(F)F)c3)nn12`, the “percent Bodipy-positive cells” value under setting [2] was determined as 14 ± 0.94%.
Regarding `C#C[C@]1(O)C=C[C@H]2[C@@H]3CCC4=CC(=O)CC[C@@H]4[C@H]3CC[C@@]21CC` [Gestodene], the “percent Bodipy-positive cells” value came out at 6.45 ± 2.7% under setting [1] and 15.1 ± 3.8% under setting [2].
With `CCN1C[C@]2(COC)CC[C@H](O)[C@@]34C5C[C@@H]6[C@@H](OC)C[C@](O)(C(CC23)C14)C5[C@H]6OC(C)=O` (some centres not stated) [Condelphine], the “percent Bodipy-positive cells” value was determined as 8.09 ± 0.84%.
For `CN(C)C(=S)SSC(=S)N(C)C` [Thiram], the “percent Bodipy-positive cells” value under setting [2] stood at 72.4 ± 17%.
As for `CCC(C)(C)O`, under setting [2], the “percent Bodipy-positive cells” value stood at 21.3 ± 4%.
For the compound `Cc1cccc([C@H](C)c2c[nH]cn2)c1C` [Dexmedetomidine], the “percent Bodipy-positive cells” value runs as follows: under setting [1], 5.65 ± 1.4%; under setting [2], 20.2 ± 0.47%.
Turning to `CCCN(CCC)[C@@H]1CCc2c(OC)cccc2[C@@H]1C` [(+)-UH 232 maleate], the “percent Bodipy-positive cells” value under setting [2] came to 15.6 ± 2.4%.
`CC1(C(=O)O)C2CCC(O2)C1(C)C(=O)O` (configuration not stated) [Cantharidic Acid]: the “percent Bodipy-positive cells” value under setting [2] worked out at 100%.
For the compound `CC(C)(C)NCC(O)c1ccccc1Cl` (configuration not stated) [Tulobuterol], the “percent Bodipy-positive cells” value by setting is: (library stock concentration: 8.8 mM) 9.05 ± 2.1%; under setting [2], 41.4 ± 3.1%.
